The values below come from article PMC8234533.

The chains behind the UniProt entries cited, without tags or fusion partners. Where a name states a change or a piece, a line headed by the entry shows the natural chain unless it says otherwise. Residues count along the entry.
UniProt P38646, residues 47-679: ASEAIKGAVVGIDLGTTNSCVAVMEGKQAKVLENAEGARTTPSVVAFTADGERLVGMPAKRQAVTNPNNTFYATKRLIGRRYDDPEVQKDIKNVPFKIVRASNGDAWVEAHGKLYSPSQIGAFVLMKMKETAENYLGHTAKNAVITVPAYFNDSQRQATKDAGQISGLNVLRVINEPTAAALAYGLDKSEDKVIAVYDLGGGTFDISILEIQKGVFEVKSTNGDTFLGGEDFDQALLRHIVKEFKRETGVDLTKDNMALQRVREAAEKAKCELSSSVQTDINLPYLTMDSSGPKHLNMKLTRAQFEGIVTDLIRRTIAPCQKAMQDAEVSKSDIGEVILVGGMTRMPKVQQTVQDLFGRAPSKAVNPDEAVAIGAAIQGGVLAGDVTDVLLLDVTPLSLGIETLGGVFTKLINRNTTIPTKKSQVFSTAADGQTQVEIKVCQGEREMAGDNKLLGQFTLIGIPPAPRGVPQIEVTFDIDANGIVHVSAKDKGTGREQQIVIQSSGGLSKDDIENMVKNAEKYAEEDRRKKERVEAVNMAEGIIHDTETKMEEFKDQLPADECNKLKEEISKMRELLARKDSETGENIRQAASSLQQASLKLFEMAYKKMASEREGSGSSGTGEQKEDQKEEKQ
UniProt O95831, residues 102-613: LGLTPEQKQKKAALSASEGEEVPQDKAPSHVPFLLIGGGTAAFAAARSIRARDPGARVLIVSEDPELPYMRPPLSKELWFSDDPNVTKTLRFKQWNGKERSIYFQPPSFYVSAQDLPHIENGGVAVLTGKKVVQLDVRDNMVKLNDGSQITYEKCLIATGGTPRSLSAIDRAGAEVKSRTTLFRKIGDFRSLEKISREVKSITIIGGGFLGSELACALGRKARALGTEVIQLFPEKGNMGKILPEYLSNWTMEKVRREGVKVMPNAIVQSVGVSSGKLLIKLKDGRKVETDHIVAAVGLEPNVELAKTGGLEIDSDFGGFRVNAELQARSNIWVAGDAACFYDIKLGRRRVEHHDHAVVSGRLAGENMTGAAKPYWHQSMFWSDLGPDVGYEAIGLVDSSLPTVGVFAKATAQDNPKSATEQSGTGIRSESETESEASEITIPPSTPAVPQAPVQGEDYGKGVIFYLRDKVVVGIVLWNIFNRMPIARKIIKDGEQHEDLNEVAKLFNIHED

The test concerns the target Mortalin/GRP75/HSPA9/mthsp70 (human (endogenous in MCF-7 and T47D)) (UniProt P38646). As to the kind of experiment: co-IP; anti-mortalin antibody and Protein A/G PLUS-Agarose, 4 °C overnight, NP40 lysates (300-500 ug protein) of control MCF-7 and T47D cells; for AIF control and Mortaparib^Plus-treated T47D cells; blots with anti-p53 (DO-1) or anti-AIF (E-1); normal rabbit IgG as control.

Results are given in words; binding and its absence hold for the method and conditions named. Binding seen in cells or lysates may run through a third protein. Some binding calls cover weakened binding; strength is not graded here.

Consider “apoptosis-inducing factor (AIF) (from UniProt O95831 102-613)”, for which the binding result is listed as “binds”.
